We go through 36 compounds from PubChem BioAssay AID2685 (National Center for Advancing Translational Sciences (NCATS), 2010).

A short description of the assay: qHTS Assay for Lipid Storage Modulators in Drosophila S3 Cells.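 As to cell number change: cells counted by Cell Tracker Red CMTPX staining in the red channel.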 As to conditions: BODIPY lipid droplet fluorescence, 18-24 h; for cell number change: measured here: cell count max response, cells fed with added oleic acid. The procedure, abridged:
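Laser-scanning cytometry quantifies lipid droplet accumulation (500–530 nm total intensity; droplet/cell object ratio) in oleic acid-fed (400 uM added) Drosophila S3 cells treated with a concentration series. 20 uM Triacsin C defined 100% inhibition.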
For orientation: qHTS replaces the single test concentration by a dilution series.

[1] abbreviates: measured here: lipid fluorescence (Fed channel) AC50, cells fed with added oleic acid.
[2] abbreviates: measured here: cell number channel AC50, cells fed with added oleic acid.

Each structure is given as a SMILES string. The list shows a part of the results. These are further read-outs of the screen, such as a control signal, another cell line or another target. No call is given for them. Most of these compounds were active or inconclusive in the main read-out, so they are no random draw. Potencies come from curve fits of mixed quality, noted in brackets.

One may read the AC50 as the concentration giving half of the maximal activity seen. Higher therefore signals activity only at high concentration.

Take `CCOCc1c(C(=O)OCC(=O)/C(C#N)=C(\C)N)oc2ccccc12`: the cell number change is -25.4%. In addition, the AC50 under setting [1] was 10300 nM [falling, partial curve].

Consider `Cc1cnc(C(=O)Nc2ccc(C)c(S(=O)(=O)N3CCCCCC3)c2)cn1`, for which the cell number change worked out at 0.402%. Moreover, under setting [2], the AC50 was 1840 nM [rising, partial curve].

With `COc1ccc(C2=NN3C(C2)c2ccccc2OC32C(=O)N(C)c3ccccc32)cc1` (stereo not given), the AC50 under setting [1] is 820 nM [rising, single point].

Take `COC(=O)c1ccccc1NC(=O)Nc1cc(C(C)(C)C)on1`: the cell number change is 14.4%. Further, the AC50 under setting [2] is 5.8 nM [rising, full curve, poor fit].

For `O=C(c1ccccc1)N1CCCC(C(=O)N2CCCCCC2)C1` (stereo not given), the cell number change was 4.95%. The AC50 under setting [2] was 4610 nM [falling, single point].

On to `Cc1cc(S(=O)(=O)N2CCOCC2)ccc1OCC(=O)Nc1ccc(F)cc1`, for which the cell number change came to 4.58%. Moreover, the AC50 under setting [1] is 1300 nM [falling, single point].

As to `Cc1noc(C)c1C(=O)NCCc1c(C)[nH]c2ccccc12`, the AC50 under setting [2] is 6510 nM [rising, single point].

As to `CN1CCN(CC(=O)Nc2cc(N(C)C)nc3ccccc23)CC1`, the cell number change was -11.8%. The AC50 under setting [2] is 461 nM [rising, full curve, poor fit]. The half-maximal activity concentration (AC50) under setting [1] was 1300 nM [rising, full curve, poor fit].

For `COc1ccc(NCc2nnc(SCC(=O)Nc3ccccc3)n2C)cc1`, the cell number change is -0.284%. The AC50 under setting [2] was 231 nM [falling, full curve, poor fit]. In addition, the half-maximal activity concentration (AC50) under setting [1] was 116 nM [falling, full curve, poor fit].

`COc1ccc(C)cc1-n1nnnc1SCC(=O)NC1CC1`: the cell number change worked out at 12.8%. Further, the AC50 under setting [1] was 580 nM [rising, single point].

Take `CC1(C)NC(=O)N(CC(O)CN(c2cccc([N+](=O)[O-])c2)S(=O)(=O)c2ccccc2)C1=O` (stereo not given): the cell number change worked out at 19.2%. Further, the AC50 under setting [1] was 2910 nM [rising, partial curve].

On to `Cc1nnc(NC(=O)CSc2nc3[nH]ncc3c(=O)[nH]2)s1`, for which the cell number change is -13.4%. The half-maximal activity concentration (AC50) under setting [1] is 8200 nM [falling, partial curve].

In the case of `O=C1CCc2cc(S(=O)(=O)Nc3ccc(F)cc3)ccc2N1`, the cell number change was -19.6%. Moreover, the AC50 under setting [1] was 2910 nM [falling, single point].

Take `CC(=O)Nc1ccc(NC(=O)c2cc(C3CC3)nc3c2cnn3C(C)C)cc1`: the cell number change amounted to 22.1%.

Consider `COc1ccccc1N1CCN(C(=O)CSc2nc3ncnc(N)c3[nH]2)CC1`, for which the cell number change was determined as 13.5%. Besides, the AC50 under setting [1] is 16400 nM [rising, partial curve].

`CCOC(=O)C1CCN(C(=O)c2ccc3nc(-c4ccc(OC)cc4)c(-c4ccc(OC)cc4)nc3c2)CC1`: the cell number change is -23.1%.

`COC(=O)CC1C(=O)NCCN1C(=O)c1sc2ccccc2c1Cl` (stereo not given): the cell number change was -6.88%. Besides, the concentration at half-maximal activity (AC50) under setting [1] is 130 nM [falling, full curve, poor fit].

On to `O=C(COC(=O)c1ccc(O)cc1O)NC12CC3CC(CC(C3)C1)C2`, for which the cell number change was -54.1%. Besides, the AC50 under setting [2] is 25900 nM [falling, partial curve]. Moreover, the AC50 under setting [1] is 23100 nM [falling, partial curve, poor fit].

For `O=C(O)CCC(=O)N1CCc2c([nH]c3ccccc23)C1C(F)(F)F` (stereo not given), the cell number change was determined as 9.08%. Further, the half-maximal activity concentration (AC50) under setting [1] was 5.17 nM [rising, full curve, poor fit].

In the case of `CC(C)CN(C(=O)CSc1nnc(-c2cccs2)n1N)c1c(N)n(Cc2ccccc2)c(=O)[nH]c1=O`, the AC50 under setting [1] is 20600 nM [rising, single point].

Consider `CN(CC(=O)O/N=C(\N)c1ccc([N+](=O)[O-])cc1)S(=O)(=O)c1ccccc1`, for which the AC50 under setting [1] is 820 nM [rising, single point].

On to `CC(C)CCNC(=O)NC(=O)CSc1ncccn1`, for which the cell number change worked out at 74.6%. The AC50 under setting [2] is 10300 nM [rising, partial curve].

Take `Cc1cc(C(=O)OCC(=O)c2c(N)n(C)c(=O)n(C)c2=O)c(C)o1`: the cell number change is 26.3%. Moreover, under setting [1], the AC50 was 731 nM [falling, single point].

Take `COc1ccc(NC(=O)CN(Cc2ccccc2)S(C)(=O)=O)c(OC)c1`: the half-maximal activity concentration (AC50) under setting [2] was 651 nM [rising, single point].

For `Cc1ccc(NC(=O)COC(=O)CCc2nc3ccccc3c(=O)[nH]2)cc1Cl`, the cell number change turned out to be 4.23%. The AC50 under setting [2] is 731 nM [falling, full curve, poor fit]. Besides, under setting [1], the AC50 was 517 nM [falling, full curve].

With `CCCNC(=O)OC[C@H]1O[C@H](CCO/N=C/[C@@H](OC)[C@H](C)/C=C/CC(=O)OC)C=C[C@@H]1Oc1ccc(OC)cc1`, the cell number change was determined as 2%. The AC50 under setting [1] is 2060 nM [rising, partial curve].

With `Cc1nc(SCC(=O)NC2CCS(=O)(=O)C2)c(C#N)c(C)c1C` (stereo not given), the cell number change turned out to be 3.74%. The AC50 under setting [2] was 3260 nM [rising, partial curve, poor fit]. For the same compound, the AC50 under setting [1] was 2060 nM [rising, partial curve, poor fit].

Take `Cc1ccc(N2C(N)=C(C#N)C3(C(=O)N(C)c4ccccc43)C3=C2CC(C)(C)CC3=O)cc1Cl` (stereo not given): the cell number change was -7.9%. The AC50 under setting [2] was 6510 nM [falling, single point]. Under setting [1], the half-maximal activity concentration (AC50) is 7.31 nM [falling, full curve, poor fit].

Turning to `CCOC(=O)C1=C(CN2CCN(CCC#N)CC2)NC(=O)NC1c1ccc2c(c1)OCO2` (stereo not given), the cell number change came to 28.3%. For the same compound, under setting [2], the AC50 was 820 nM [rising, full curve, poor fit]. The AC50 under setting [1] was 20600 nM [rising, single point].

As for `CC(C)Cc1csc(NC(=O)C(C)C)c1C(=O)O`, the cell number change stood at 4.27%.

With `CON1C(=O)C(=O)N(OC)C(C)(C)C1(C)C`, the cell number change is -10.9%. Moreover, the AC50 under setting [2] is 206 nM [falling, full curve].

Take `COc1cccc(C2=Nc3cccc4cccc(c34)N2)c1`: the cell number change amounted to 44.8%. The half-maximal activity concentration (AC50) under setting [2] was 29100 nM [rising, single point].

As for `CSc1cccc(CNC(=O)C2CCC(=O)N(Cc3cccc(C(F)(F)F)c3)C2)c1` (stereo not given), the cell number change is -2.45%. In addition, the AC50 under setting [1] was 6510 nM [falling, single point].

On to `COc1cc(Cl)c(C)cc1NC(=O)CCCn1c(=O)oc2ccccc21`, for which the cell number change turned out to be 24.6%.

In the case of `Cc1ccc(S(=O)(=O)c2c(N)n(/N=C/c3ccco3)c3nc4ccccc4nc23)cc1C`, the cell number change amounted to 1.57%. Besides, under setting [1], the half-maximal activity concentration (AC50) is 580 nM [falling, full curve].

For `N/C(=N\c1nc2c(c(=O)[nH]1)CCCC2)Nc1ccccc1Sc1ccccc1`, the cell number change was 7.77%. For the same compound, the half-maximal activity concentration (AC50) under setting [1] was 1300 nM [falling, full curve, poor fit].
